{"source": "patent US8168391B2", "about": "“Method for modulating insulin production” (Burnham Institute for Medical Research, priority 2007, dated 2012)", "test_system": "insulin promoter", "experiment": "Insulin promoter/reporter screen in the presence of a fatty acid (reversal of palmitate-induced lipotoxicity)", "type": "cell-based, human", "settings": "screen in presence of fatty acid (FIG. 20) vs not in presence (FIG. 19)", "description": "The assays employ a cell line derived from human fetal islet cells (T6PNE) in which the cells are infected with a promoter/reporter construct. The construct is shown in FIG. 7 and incorporates an insulin promoter operably linked to an eGFP. Cells were infected and plated, and candidate libraries screened and “hit” detected as discussed in Example 1.\nTo differentiate between agents that specifically act to reverse lipotoxicity as compared to generally increasing transcription of insulin a two layer screening approach was utilized. In the first layer, islet cells infected with an insulin promoter/reporter construct are screened in the absence of a fatty acid. A “hit” indicates an agent that is capable of increasing insulin transcription. In the second layer, islet cells infected with an insulin promoter/reporter construct are screened in the presence of a fatty acid. A “hit” indicates a drug that reverses the effects of the fatty acid addition, for example reduction of insulin transcription. This drugs screened in both layers may be used to identify whether the drug is specific to lipotoxicity reversal. For example, drugs that are “hits” in the second layer screen but not in the first layer screen are specific to lipotoxicity reversal."}
{"smiles": "CC(C)[N+]1(C)[C@@H]2CC[C@H]1C[C@@H](OC(=O)C(CO)c1ccccc1)C2.O.[Br-]", "note": "(stereo partly shown) [ipratropium bromide monohydrate]", "values": [{"measurement": "reversal of palmitate-induced lipotoxicity", "value": "expected to reverse lipotoxicity"}]}
